Assay results from paper PMC4606071.
Results are given in words; binding and its absence hold for the method and conditions named. For some of these results: Binding seen in cells or lysates may run through a third protein. Some entries that bind do so weakly or less than the wild type. Sequences can lack the tags named with a protein. Values belong to the binder of their own block, whether it stands above or below them.

Tests used:
[1] = target: BRASSINOSTEROID … 1 (BRI1), full length, split-ubiquitin fusion (Arabidopsis thaliana) (UniProt O22476); experiment: two-hybrid; mating-based split ubiquitin system (mbSUS) in yeast; Cub fusions in THY.AP4, Nub fusions in THY.AP5, both orientations; growth of diploids on -AHLT medium with 0, 75, 150 and 400 uM methionine; also beta-galactosidase assays
[2] = target: BRI1-nYFP (Arabidopsis thaliana) (UniProt O22476); experiment: split reporter; BiFC: BRI1-nYFP co-expressed with cYFP fusions in Nicotiana benthamiana leaf epidermal cells by Agrobacterium co-injection; YFP fluorescence by confocal microscopy after 72 h

- binding [1]: binds weakly
B1: SERK5 (Col-0 ecotype), full length, split-ubiquitin fusion (receptor, UniProt Q8LPS5 25-601)
chain: KTQVDALIALRSSLSSGDHTNNILQSWNATHVTPCSWFHVTCNTENSVTRLDLGSANLSGELVPQLAQLPNLQYLELFNNNITGEIPEELGDLMELVSLDLFANNISGPIPSSLGKLGKLRFLRLYNNSLSGEIPRSLTALPLDVLDISNNRLSGDIPVNGSFSQFTSMSFANNKLRPRPASPSPSPSGTSAAIVVGVAAGAALLFALAWWLRRKLQGHFLDVPAEEDPEVYLGQFKRFSLRELLVATEKFSKRNVLGKGRFGILYKGRLADDTLVAVKRLNEERTKGGELQFQTEVEMISMAVHRNLLRLRGFCMTPTERLLVYPYMANGSVASCLRERPEGNPALDWPKRKHIALGSARGLAYLHDHCDQKIIHLDVKAANILLDEEFEAVVGDFGLAKLMNYNDSHVTTAVRGTIGHIAPEYLSTGKSSEKTDVFGYGVMLLELITGQKAFDLARLANDDDIMLLDWVKEVLKEKKLESLVDAELEGKYVETEVEQLIQMALLCTQSSAMERPKMSEVVRMLEGDGLAERWEEWQKEEMPIHDFNYQAYPHAGTDWLIPYSNSLIENDYPSGPR

- binding [2]: binds weakly
B2: SERK5-cYFP (receptor, UniProt Q8LPS5 25-601)
chain: B1 chain

- binding [1]: binds
B3: BKK1 (BAK1-Like 1, SERK4), full length, split-ubiquitin fusion (receptor, UniProt Q9SKG5 34-620)
chain: DALTQLKNSLSSGDPANNVLQSWDATLVTPCTWFHVTCNPENKVTRVDLGNAKLSGKLVPELGQLLNLQYLELYSNNITGEIPEELGDLVELVSLDLYANSISGPIPSSLGKLGKLRFLRLNNNSLSGEIPMTLTSVQLQVLDISNNRLSGDIPVNGSFSLFTPISFANNSLTDLPEPPPTSTSPTPPPPSGGQMTAAIAGGVAAGAALLFAVPAIAFAWWLRRKPQDHFFDVPAEEDPEVHLGQLKRFTLRELLVATDNFSNKNVLGRGGFGKVYKGRLADGNLVAVKRLKEERTKGGELQFQTEVEMISMAVHRNLLRLRGFCMTPTERLLVYPYMANGSVASCLRERPEGNPALDWPKRKHIALGSARGLAYLHDHCDQKIIHRDVKAANILLDEEFEAVVGDFGLAKLMNYNDSHVTTAVRGTIGHIAPEYLSTGKSSEKTDVFGYGVMLLELITGQKAFDLARLANDDDIMLLDWVKEVLKEKKLESLVDAELEGKYVETEVEQLIQMALLCTQSSAMERPKMSEVVRMLEGDGLAERWEEWQKEEMPIHDFNYQAYPHAGTDWLIPYSNSLIENDYPSGPR

- binding [2]: binds
B4: BKK1-cYFP (receptor, UniProt Q9SKG5 34-620)
chain: B3 chain
